According to US20250122301A1 (IBIO, published 2025):
Changes are numbered by the printed parent chain. Results are given in words; binding and its absence hold for the method and conditions named. Some results given as binding are weak or reduced against the parent protein; the word gives no strength.

Chains of the proteins cited; added tags and fusions are not shown. Lines headed by an entry give the natural chain unless they say otherwise; changes in a name come on top. A line that says so, or that is headed by a name, gives the form on record, which may keep a tag or linker. Residues count along the entry.
UniProt P01589: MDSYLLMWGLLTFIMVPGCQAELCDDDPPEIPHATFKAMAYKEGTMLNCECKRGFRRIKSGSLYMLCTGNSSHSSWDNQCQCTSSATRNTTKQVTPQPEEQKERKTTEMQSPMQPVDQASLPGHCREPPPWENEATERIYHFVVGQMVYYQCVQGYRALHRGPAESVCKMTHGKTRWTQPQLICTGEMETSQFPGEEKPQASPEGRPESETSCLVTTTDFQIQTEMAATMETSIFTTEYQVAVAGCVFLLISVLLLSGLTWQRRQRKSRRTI
CD25 on CD25+ cells (SUDHL-1, HEK IL-2 reporter cells, primary human regulatory T cells): residues 22-272 of P01589
full-length CD25 (human CD25, recombinant protein used on biosensors): residues 22-213 of P01589
recombinant cynomolgus monkey (cyno) CD25 (H6WS54, form named): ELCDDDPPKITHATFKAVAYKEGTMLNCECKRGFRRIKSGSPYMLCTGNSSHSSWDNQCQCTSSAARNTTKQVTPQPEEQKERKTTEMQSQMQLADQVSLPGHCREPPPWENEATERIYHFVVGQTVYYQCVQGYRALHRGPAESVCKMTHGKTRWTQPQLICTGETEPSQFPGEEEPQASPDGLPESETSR

Experiments:
[1] = molecular target: CD25 on CD25+ cells (SUDHL-1, HEK IL-2 reporter cells, primary human regulatory T cells) (human) (UniProt P01589); test: flow cytometry, SUDHL-1 and HEK IL-2 reporter cells
[2] = molecular target: CD25 on CD25+ cells (SUDHL-1, HEK IL-2 reporter cells, primary human regulatory T cells) (human) (UniProt P01589); test: flow cytometry dose response, SUDHL-1 cells (CD25+)
[3] = molecular target: full-length CD25 (human CD25, recombinant protein used on biosensors) (human) (UniProt P01589); test: BLI (Octet RED384): antibody on AR2G sensor, 300 nM full-length CD25, 1:1 fit
[4] = molecular target: recombinant cynomolgus monkey (cyno) CD25 (cynomolgus monkey) (UniProt H6WS54); test: ELISA on coated recombinant cyno CD25, OD450
[5] = molecular target: CD25 on CD25+ cells (SUDHL-1, HEK IL-2 reporter cells, primary human regulatory T cells) (human) (UniProt P01589); test: flow cytometry, 10 ug/mL antibody, SUDHL-1 cells (CD25+)
[6] = molecular target: CD25 on CD25+ cells (SUDHL-1, HEK IL-2 reporter cells, primary human regulatory T cells) (human) (UniProt P01589); test: flow cytometry, 10 ug/mL antibody, HEK IL-2 reporter cells (CD25+)
[7] = molecular target: full-length CD25 (human CD25, recombinant protein used on biosensors) (human) (UniProt P01589); test: Octet, CD25 captured on 7G7B6-coated tip, then Fab
[8] = molecular target: full-length CD25 (human CD25, recombinant protein used on biosensors) (human) (UniProt P01589); test: BLI (Octet) cross block: CD25 on tip, Fab step, then IL-2 step
[9] = molecular target: full-length CD25 (human CD25, recombinant protein used on biosensors) (human) (UniProt P01589); test: BLI (Octet): 7G7B6 on tip, CD25 captured, then Fab or Basiliximab, then buffer
[10] = molecular target: full-length CD25 (human CD25, recombinant protein used on biosensors) (human) (UniProt P01589); test: Octet BLI, IgG1 immobilised on AR2G, 300 nM full-length CD25
[11] = molecular target: full-length CD25 (human CD25, recombinant protein used on biosensors) (human) (UniProt P01589); test: BLI (Octet) sandwich binning: antibody on AR2G sensor, full-length CD25, then competitor

Measured: binding

B1: BP003-T2P1C4 (human IgG1 reformatted) (antibody, V domains shown)
VH: QVQLQQSGAELVRPGTSVKISCKASGYTFTNYWLGWVKQRPGHGLEWIGDIYPGGGYTNYNEKFKGKATLTADTSSSTAYMQLSSLTSEDSAVYFCARVTPASWGQGTTVTVSS
VL: DIQMTQSQKFMSASVGDRVSVTCKASQNVGTNVAWYQQKPGQSPKALIYSASYRYSGVPDRFTGSGSGTDFTLTISNVQSEDLAEYFCQQYNSYPYTFGGGTKLEMK
binds: [1] | [2] | [3]

B2: BP003-T2P1D10 (human IgG1 reformatted) (antibody, V domains shown)
VH: B1 VH with V2I, S7P, T109S, V110L
VL: B1 VL with Q3V, M4I, A13T, F62L, S93R, M106I
binds: [4] | [1] | [2] | [5] | [6] | [3]

B3: D5 Fab (Fab, V domains shown)
VH: B1 VH with Q1H, T109S, V110L
VL: B1 VL with Q3V, A13T
notes: Fab from mouse immune phage library, expressed in E. coli; also called Fab clone D5
binds: [7] | [8] | [9]

B4: D16 Fab (Fab, V domains shown)
VH: B1 VH with L4M, V110L
VL: B1 VL with A13T, Y96W, M106I
notes: Fab; also called Fab clone D16
binds: [7] | [9]

B5: D17 Fab (Fab, V domains shown)
VH: B1 VH with V2I, V110L, S114A
VL: B1 VL with Q3L, M4L, A13T, Y96L, M106I
notes: Fab; also called Fab clone D17
binds: [7] | [8]

B6: AH04750 (human IgG1 reformatted) (antibody, V domains shown)
VH: QVQLQQPGAEMAKPGASVKMSCKASGYTSTAYWIHWVKQRPGQGLEWIGYITPSTGYTEYNQKFEDKATLTADKSSNTAYMQLNSLTSEDSAVYYCARGGYFDYWGQGTTVTVSS
VL: DIQMTQTTSSLSASLGDRVTISCRASQDISNYLNWYQQKPDGTVKLLIYYTSRLHSGVPSRFSGSGSGTDYSLTISNLEQEDIATYFCQQGNTLPPTFGGGTKLEMK
binds: [1] | [2] | [10] | [5] | [6] | [3]

B7: AH05251 (human IgG1 reformatted) (antibody, V domains shown)
VH: EVRLQQSGAELVRSGASVKLSCTASGFNIKDYYIHWVKQRPEQGLEWIGWIDPDNGETEYAPKFQGKATMTADTSSNTAHLQLSSLTSEDTAVYYCTVFWYGNNYAGFAYWGQGTLVTVSS
VL: DVVMTQTPLSLPVNLGDQASISCRSSQSIVHSNGNTYLEWYLQKPGQSPKLLIYKVSNRFSGVPDRFSGSGSGTDFTLKISRVEAEDLGIYYCFQGSHVPPTFGGGTKLEIK
binds: [1] | [10] | [5] | [6] | [3] | [11]

B8: BP003-T2P1D7 (human IgG1 reformatted) (antibody, V domains shown)
VH: B7 VH with E1Q, V2A, R3Y, S121A
VL: B7 VL with M4L, N14S, R82K, I90V
binds: [4] | [1] | [2] | [10] | [6] | [3]

B9: AH05256 (human IgG1 reformatted) (antibody, V domains shown)
VH: QVQLQQPGAELAKPGASVKMSCKASGYTFTRYWIHWVKQRPGQDLEWIGYINPRTDYTEYNQKFKDKATLTADKSSSTAYMQLSSLTSDDSAVYYCARHGYFDYWGQGTTLTVSS
VL: B6 VL with Y50H, H55Q, S63T, G91S, T93S, M106I
not listed: [4] | [7] | [8] | [9]
binds: all other assays above

B10: AH05268 (human IgG1 reformatted) (antibody, V domains shown)
VH: QVQLQQSGAELVRPGVSLKISCKGSGYTFTDYAMHWVRQSHAKSLEWIGVISTYSGDALYNQKFKGKATMTVDKSSSTAYLELARLTSDDSAIYYCARGVTFDYWGQGTTLTVSS
VL: DVQMTQSPSSMYASLGERVTFTCKASQDINRYLSWFQQKPGKSPKTLIYRANRLVDGVPSRFSGSGSGQNYSLTISSLEYEDMGIYYCLQYDEFPYTFGGGTKLEIK
binds: [1] | [2] | [10] | [5] | [6] | [3]

B11: AH04527 (human IgG1 reformatted) (antibody, V domains shown)
VH: QVQLQQSGAELVRPGTSVKMSCKAAGYTFTNYWIGWVKQRPGHGLEWIGDIHPGGGYIDYNEKFTGKATLTADTSSSTAYMQLSSLTSEDSAIYYCVSRNFAKWGQGTLVTVSA
VL: B1 VL with I2V, Q3V, A13T, M106I
binds: [10] | [3] | [11]

B12: BP003-T2P1E3 (human IgG1 reformatted) (antibody, V domains shown)
VH: B11 VH with V2I, I58T, D59N, T65K, V97T, K103Y, L109P, A114S
VL: B1 VL with Q3V, M4L, A13T, M106I
binds: [4] | [1] | [2] | [3]

B13: D34 (human IgG1 reformatted) (antibody, V domains shown)
VH: B10 VH with L18V, R38K, A58V, L59S, L81M, D89E, Y104S, L111V
VL: DIQMTQSPASLSASVGETVTITCRASENSYSYLEWYQQKQGKSPQLLVYNAKTLAEGVPSRFSGSGSGTQFSLKINSLQPEDFGTYYCQHHYGTPYTFGGGTKLEIK
binds: [4] | [10] | [3] | [11]

B14: D11 Fab (Fab, V domains shown)
VH: B10 VH with V2I, S7P, L59I, L111V
VL: DIQMTQTTSSLSASLGDRVTITCRASQDISNYLEWYQQKQGKSPQLLVYNAKTLAEGVPSRFSGSGSGTQFSLKINSLQPEDFGSYYCQHHYDTPYTFGGGTKLEIK
notes: Fab; also called Fab clone D11
binds: [8]
